Structures can show the parent of a compound that is named as a salt. At least one compound was matched to its structure with a doubt left.
Experiments:
rats [1] = experiment: Small Intestinal Transit Rodent Model (charcoal meal); type: in vivo, rat; details: all doses tested i.p. (MCI-225 3, 10, 30; ondansetron 1, 5, 10 mg/kg)
Method: Following an overnight fast, rats were brought to the laboratory in their home cages and received an i.p. injection of one of the following: […] Control rats received no treatment. The treated rats were placed back in the home cages and after 30 min, were fed a 2 mL charcoal meal via an oral gavage. Small intestinal transit was measured following 15 min test-period. Each rat was placed briefly in a glass chamber with IsoFlo for anesthesia and sacrificed. The stomach and the small intestine were removed and the total length of the small intestine was measured. Transit was then measured as the distance that the charcoal meal had traveled along the small intestine and expressed as % of the total length. Animals were randomly assigned to experimental groups and experiments were performed as illustrated in Table 3. Ondansetron was supplied from APIN Chemicals LTD. […] The distance traveled by the charcoal meal was quantified as a percent of the small intestinal length, using the following equation: Transit (%)=cm traveled by meal/cm total small intestinal length×100 […] […] Differences between individual dose groups within treatments and comparisons between drug-treated and vehicle-treated groups were determined using an unpaired t test considering that when % is used as a relative unit, t-statistic is relevant. […]

rats [2] = experiment: Visceromotor response to colorectal distension, acetic acid-induced colonic hypersensitivity; type: in vivo, rat
Method: The visceromotor behavioral response to colorectal distension was measured by counting the number of abdominal contractions recorded by a strain gauge sutured onto the abdominal musculature as described in Gunter et al., Physiol. […] A 5 cm latex balloon catheter inserted via the anal canal into the colon was used for colorectal distensions. Constant pressure tonic distensions were performed in a graded manner (15, 30 or 60 mmHg) and were maintained for a period of 10 min and the numbers of abdominal muscle contractions were recorded to measure the level of colonic sensation. A 10 min recovery was allowed between distensions.
J. Physiol. […]
Injection volume was 0.2 mL using 100% propylene glycol as the vehicle. Three consecutive colorectal distensions at 15, 30 or 60 mmHg applied at 10-min intervals were recorded. Visceromotor responses were evaluated as the number of abdominal muscle contractions recorded during the 10-min periods of colorectal distension.
Adult male rats were used in the study. […] After a basal reading of the number of abdominal contractions with the balloon inserted but not distended, three consecutive 10-min lasting colorectal distensions at 15, 30, and 60 mmHg were applied at 10-min intervals. Colorectal sensitivity was evaluated by counting the number of reflex abdominal contractions (i.e. the visceromotor response) observed within each distension period. […]

rats [3] = experiment: Dilute Acetic Acid Model-Rats (bladder capacity, filling cystometry); type: in vivo, rat; details: intraduodenal
ferrets = experiment: Cisplatin-induced emesis in the ferret; type: in vivo, Mustela putario furo
Method: The ability of MCI-225 to reduce retching and vomiting in an accepted model of cytotoxin-induced emesis in the ferret was assessed. Specifically, the experiments described herein investigated the effect of MCI-225 on retching and vomiting induced by cisplatin. Ondansetron was used as a positive control in the model, in view of its known antiemetic activity. Adult male ferrets (Mustela putario furo) weighing 1200-1880 g were purchased from Triple F Farms (Sayre, Pa.) and housed in individual cages at standardized conditions (12:12 h light/dark cycle and 21-23° C.). Prior to the experiments, the ferrets were allowed a 7-10 day acclimatization period to the animal facility. The ferrets were fed a carnivore diet with free access to food and water throughout the course of the study. The use of the ferret model of emesis and the drug treatment were preapproved in accordance with facility standards. A cisplatin solution was prepared by adding preheated (70° C.) saline to cisplatin powder (Sigma-Aldrich Co.) and stirring or sonicating at 40° C. until dissolved. Following administration of the cisplatin and either MCI-225, ondansetron or vehicle alone, the occurrence of retching and vomiting was monitored for a period of 6 hours. Retching was defined as the number of forceful rhythmic contractions of the abdomen occurring with the animal in characteristic posture, but not resulting in the expulsion of upper gastrointestinal tract contents (Watson et al., British Journal of Pharmacology, 115(1): 84-94 (1994)). Vomiting was defined as the forceful oral expulsion of upper gastrointestinal contents. The latency of the retching or vomiting response and the number of episodes were recorded for each animal and summarized for each experimental group (Wright et al., Infect. Immun., 68(4): 2386-9 (2000)). Following one hour of acclimation to the observation cage, ferrets received an intraperitoneal (i.p.) injection of cisplatin (5 mg/kg in 5 mL) followed in about 2 minutes by i.p. injection of a single dose of MCI-225 or ondansetron (Rudd and Naylor, Eur. J. Pharmacol., 322: 79-82 (1997)). […]

rats [4] = experiment: Water avoidance stress (WAS) model of increased colonic transit, fecal pellet output; type: in vivo, rat; details: all doses tested i.p. (MCI-225, nisoxetine 3, 10, 30; ondansetron 1, 5, 10 mg/kg)
Method: Ondansetron (5-HT3 receptor antagonist), nisoxetine (NARI) and a combination of ondansetron and nisoxetine were used as comparison compounds. The model provides a method of evaluating the effectiveness of a compound in a specific patient group of IBS sufferers where stress induced colonic motility is considered a significant contributing factor.
Fecal pellet output was measured by counting the total number of fecal pellets produced during 1 hour of WAS.
All rats underwent sham stress (I-hour in stress chamber without water) for 2-4 consecutive days before undergoing WAS (sham was performed until rats produced 0-1 pellet per hour for 2 consecutive days). At the end of the 1-hour stress period, the fecal pellets were counted and recorded.
WAS causes an acceleration of colonic transit, which can be quantified by counting the number of fecal pellets, produced during the stress procedure. Rats were placed for 1-hour into a stress chamber onto a raised platform 7.5 cm×7.5 cm×9 cm (L×W×H) in the center of a stress chamber filled with room temperature water 8 cm in depth.
Control drugs for this study were ondansetron and nisoxetine. Ondansetron was supplied from APIN Chemicals LTD. Nisoxetine was supplied by Tocris. […] All drugs and the vehicle were administered as an i.p. injection in a volume of 0.2 mL.
Statistical significance was assessed using one-way ANOVA followed by Tukey post-test. […]

cats = experiment: Dilute Acetic Acid Model-Cats (bladder capacity); type: in vivo, cat

Cc1cc2c(-c3ccccc3F)nc(N3CCNCC3)nc2s1 [MCI-225, 4-(2-fluorophenyl)-6-methyl-2-(piperazin-1-yl)thieno[2,3-d] pyrimidine hydrochloride]
Small intestinal transit vs vehicle (rats [1]): dose-dependent inhibition of small intestinal transit | Number of abdominal contractions in response to colorectal distension vs vehicle (rats [2]; 10 mg/kg i.p., 15, 30 and 60 mmHg): significant decrease in the number of abdominal contractions | Visceromotor response to colorectal distension, high dose (rats [2]; 30 mg/kg i.p.): appeared to be less effective | Bladder capacity vs last vehicle measurement (rats [3]; 10 mg/kg, p<0.05): significantly higher than AANeh 3 | Bladder capacity vs last vehicle measurement (rats [3]; 30 mg/kg, p<0.001): significantly higher than AANeh 3 | Bladder capacity (rats [3]; 3-30 mg/kg cumulative, continuous acetic acid irritation): dose-dependent increase in bladder capacity | Latency of the emetic response following cisplatin (ferrets; all doses tested i.p.): increase in the latency | Emetic events (retches and vomits) induced by cisplatin (ferrets; all doses tested i.p. (ondansetron 5, 10; MCI-225 1, 10, 30 mg/kg)): dose-dependent reduction in the retches and vomits | Emetic response (ferrets; two doses of 30 mg/kg, b.i.d at a 180-min interval): eliminated | WAS-induced fecal pellet output in 1 hour (rats [4]): significant dose-dependent inhibition | Bladder capacity, individual dose (cats; 30 mg/kg, P<0.05): individual dose significance attained | Bladder capacity (cats; 3 point dose response (3, 10, 30 mg/kg), acetic acid irritation): significant dose-dependent increase in bladder capacity

Source: patent publication US20070254899A1, “Soluble salts of thieno[2,3-d]pyrimidine derivatives” (Dynogen Pharmaceuticals, Inc., priority 2006, published 2007)
